The record followed here is PMC11169412.

Chains of the proteins cited; added tags and fusions are not shown. Residues count along the entry.
UniProt Q9R0N3: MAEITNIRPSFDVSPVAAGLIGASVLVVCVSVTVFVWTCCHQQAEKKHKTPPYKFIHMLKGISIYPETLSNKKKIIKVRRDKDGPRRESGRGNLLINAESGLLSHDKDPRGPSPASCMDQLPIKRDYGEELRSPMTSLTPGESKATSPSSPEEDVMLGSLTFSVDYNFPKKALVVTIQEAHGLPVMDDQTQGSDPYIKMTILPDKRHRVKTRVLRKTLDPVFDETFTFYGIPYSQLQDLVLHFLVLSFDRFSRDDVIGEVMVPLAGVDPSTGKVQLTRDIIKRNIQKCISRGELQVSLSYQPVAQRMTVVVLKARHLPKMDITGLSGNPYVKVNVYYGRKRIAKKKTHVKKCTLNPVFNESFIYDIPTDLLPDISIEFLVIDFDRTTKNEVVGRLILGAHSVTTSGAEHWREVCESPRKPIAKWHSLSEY
UniProt Q5DTY9: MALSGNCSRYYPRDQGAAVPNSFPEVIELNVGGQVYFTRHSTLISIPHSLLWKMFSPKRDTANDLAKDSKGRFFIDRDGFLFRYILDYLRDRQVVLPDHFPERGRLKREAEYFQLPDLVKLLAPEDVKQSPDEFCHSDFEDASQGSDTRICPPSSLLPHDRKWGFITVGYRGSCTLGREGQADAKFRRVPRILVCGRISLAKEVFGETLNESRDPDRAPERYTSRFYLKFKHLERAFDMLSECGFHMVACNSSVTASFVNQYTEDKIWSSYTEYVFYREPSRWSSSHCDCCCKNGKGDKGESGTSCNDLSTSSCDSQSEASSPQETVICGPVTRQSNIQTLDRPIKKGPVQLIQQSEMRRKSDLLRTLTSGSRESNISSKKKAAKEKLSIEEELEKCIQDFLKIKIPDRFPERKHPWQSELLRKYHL
UniProt P15209, residues 32-821: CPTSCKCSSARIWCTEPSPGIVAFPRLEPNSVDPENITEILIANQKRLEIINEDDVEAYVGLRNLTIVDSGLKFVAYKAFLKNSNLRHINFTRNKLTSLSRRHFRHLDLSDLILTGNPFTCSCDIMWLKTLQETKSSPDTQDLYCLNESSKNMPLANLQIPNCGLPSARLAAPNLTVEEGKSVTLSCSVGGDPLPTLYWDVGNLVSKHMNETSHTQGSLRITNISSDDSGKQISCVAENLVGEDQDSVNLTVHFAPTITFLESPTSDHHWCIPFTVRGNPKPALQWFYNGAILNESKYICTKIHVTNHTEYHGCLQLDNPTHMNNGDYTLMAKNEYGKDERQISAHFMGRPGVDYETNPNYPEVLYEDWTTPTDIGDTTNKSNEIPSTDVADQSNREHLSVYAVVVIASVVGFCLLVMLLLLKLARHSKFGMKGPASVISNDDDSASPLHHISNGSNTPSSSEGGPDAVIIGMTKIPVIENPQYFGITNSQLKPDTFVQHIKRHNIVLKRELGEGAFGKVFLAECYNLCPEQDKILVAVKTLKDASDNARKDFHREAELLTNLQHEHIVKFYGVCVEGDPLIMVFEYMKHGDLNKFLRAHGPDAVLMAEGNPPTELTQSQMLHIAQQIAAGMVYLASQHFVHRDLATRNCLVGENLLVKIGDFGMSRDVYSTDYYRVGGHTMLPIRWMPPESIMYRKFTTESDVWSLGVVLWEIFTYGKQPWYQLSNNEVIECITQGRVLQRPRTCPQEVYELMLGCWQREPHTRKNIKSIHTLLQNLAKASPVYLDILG
UniProt Q60612: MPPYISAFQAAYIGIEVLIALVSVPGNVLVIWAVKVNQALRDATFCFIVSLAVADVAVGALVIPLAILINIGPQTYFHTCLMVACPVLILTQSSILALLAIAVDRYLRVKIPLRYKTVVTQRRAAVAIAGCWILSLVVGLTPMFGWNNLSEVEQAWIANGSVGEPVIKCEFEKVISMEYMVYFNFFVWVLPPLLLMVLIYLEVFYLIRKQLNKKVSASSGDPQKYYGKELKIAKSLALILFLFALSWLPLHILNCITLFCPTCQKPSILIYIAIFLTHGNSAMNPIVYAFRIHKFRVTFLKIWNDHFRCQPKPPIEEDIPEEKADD
UniProt P33173: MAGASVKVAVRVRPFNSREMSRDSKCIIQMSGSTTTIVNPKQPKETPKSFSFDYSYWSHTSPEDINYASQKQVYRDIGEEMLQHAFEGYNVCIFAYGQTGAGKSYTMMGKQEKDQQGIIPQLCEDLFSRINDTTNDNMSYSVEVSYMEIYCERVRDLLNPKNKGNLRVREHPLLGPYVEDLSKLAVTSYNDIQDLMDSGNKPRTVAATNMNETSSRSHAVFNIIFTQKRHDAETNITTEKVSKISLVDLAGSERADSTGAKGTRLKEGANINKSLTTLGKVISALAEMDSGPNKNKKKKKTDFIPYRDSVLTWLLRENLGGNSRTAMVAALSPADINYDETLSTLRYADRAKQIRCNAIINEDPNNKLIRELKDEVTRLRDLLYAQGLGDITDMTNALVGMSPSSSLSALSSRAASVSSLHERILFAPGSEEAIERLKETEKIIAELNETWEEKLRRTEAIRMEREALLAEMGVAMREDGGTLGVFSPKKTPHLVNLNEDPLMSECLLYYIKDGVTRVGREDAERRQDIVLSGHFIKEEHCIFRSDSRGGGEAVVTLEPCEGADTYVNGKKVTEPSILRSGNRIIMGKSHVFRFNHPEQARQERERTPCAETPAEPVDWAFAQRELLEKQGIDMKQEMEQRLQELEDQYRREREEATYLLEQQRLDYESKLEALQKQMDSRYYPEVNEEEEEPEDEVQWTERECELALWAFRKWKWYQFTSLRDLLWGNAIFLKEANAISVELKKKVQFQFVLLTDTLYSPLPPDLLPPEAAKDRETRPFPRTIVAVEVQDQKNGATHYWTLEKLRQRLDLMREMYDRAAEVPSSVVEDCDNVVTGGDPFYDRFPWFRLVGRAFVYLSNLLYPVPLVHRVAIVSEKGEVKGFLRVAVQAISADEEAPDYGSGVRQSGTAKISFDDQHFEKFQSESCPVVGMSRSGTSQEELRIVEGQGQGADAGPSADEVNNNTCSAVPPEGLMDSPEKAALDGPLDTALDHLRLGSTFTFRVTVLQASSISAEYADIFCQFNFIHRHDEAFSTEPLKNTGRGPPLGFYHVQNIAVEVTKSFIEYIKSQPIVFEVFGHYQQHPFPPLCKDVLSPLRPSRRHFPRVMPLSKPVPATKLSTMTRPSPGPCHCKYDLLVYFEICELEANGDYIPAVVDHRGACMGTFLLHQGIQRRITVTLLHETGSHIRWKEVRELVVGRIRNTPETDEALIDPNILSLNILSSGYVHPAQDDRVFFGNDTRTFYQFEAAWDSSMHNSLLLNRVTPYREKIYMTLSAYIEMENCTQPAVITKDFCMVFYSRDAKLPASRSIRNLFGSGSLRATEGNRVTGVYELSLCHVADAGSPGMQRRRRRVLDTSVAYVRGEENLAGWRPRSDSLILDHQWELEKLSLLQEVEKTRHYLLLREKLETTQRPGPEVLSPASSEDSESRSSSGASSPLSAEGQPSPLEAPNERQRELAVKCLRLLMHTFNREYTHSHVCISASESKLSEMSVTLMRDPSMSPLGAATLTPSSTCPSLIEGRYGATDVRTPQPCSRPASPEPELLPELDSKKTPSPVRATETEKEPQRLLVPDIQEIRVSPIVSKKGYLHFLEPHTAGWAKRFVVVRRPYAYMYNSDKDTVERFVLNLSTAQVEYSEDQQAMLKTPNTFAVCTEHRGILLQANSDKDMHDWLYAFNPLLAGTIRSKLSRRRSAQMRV
UniProt Q9CS84, residues 31-1514: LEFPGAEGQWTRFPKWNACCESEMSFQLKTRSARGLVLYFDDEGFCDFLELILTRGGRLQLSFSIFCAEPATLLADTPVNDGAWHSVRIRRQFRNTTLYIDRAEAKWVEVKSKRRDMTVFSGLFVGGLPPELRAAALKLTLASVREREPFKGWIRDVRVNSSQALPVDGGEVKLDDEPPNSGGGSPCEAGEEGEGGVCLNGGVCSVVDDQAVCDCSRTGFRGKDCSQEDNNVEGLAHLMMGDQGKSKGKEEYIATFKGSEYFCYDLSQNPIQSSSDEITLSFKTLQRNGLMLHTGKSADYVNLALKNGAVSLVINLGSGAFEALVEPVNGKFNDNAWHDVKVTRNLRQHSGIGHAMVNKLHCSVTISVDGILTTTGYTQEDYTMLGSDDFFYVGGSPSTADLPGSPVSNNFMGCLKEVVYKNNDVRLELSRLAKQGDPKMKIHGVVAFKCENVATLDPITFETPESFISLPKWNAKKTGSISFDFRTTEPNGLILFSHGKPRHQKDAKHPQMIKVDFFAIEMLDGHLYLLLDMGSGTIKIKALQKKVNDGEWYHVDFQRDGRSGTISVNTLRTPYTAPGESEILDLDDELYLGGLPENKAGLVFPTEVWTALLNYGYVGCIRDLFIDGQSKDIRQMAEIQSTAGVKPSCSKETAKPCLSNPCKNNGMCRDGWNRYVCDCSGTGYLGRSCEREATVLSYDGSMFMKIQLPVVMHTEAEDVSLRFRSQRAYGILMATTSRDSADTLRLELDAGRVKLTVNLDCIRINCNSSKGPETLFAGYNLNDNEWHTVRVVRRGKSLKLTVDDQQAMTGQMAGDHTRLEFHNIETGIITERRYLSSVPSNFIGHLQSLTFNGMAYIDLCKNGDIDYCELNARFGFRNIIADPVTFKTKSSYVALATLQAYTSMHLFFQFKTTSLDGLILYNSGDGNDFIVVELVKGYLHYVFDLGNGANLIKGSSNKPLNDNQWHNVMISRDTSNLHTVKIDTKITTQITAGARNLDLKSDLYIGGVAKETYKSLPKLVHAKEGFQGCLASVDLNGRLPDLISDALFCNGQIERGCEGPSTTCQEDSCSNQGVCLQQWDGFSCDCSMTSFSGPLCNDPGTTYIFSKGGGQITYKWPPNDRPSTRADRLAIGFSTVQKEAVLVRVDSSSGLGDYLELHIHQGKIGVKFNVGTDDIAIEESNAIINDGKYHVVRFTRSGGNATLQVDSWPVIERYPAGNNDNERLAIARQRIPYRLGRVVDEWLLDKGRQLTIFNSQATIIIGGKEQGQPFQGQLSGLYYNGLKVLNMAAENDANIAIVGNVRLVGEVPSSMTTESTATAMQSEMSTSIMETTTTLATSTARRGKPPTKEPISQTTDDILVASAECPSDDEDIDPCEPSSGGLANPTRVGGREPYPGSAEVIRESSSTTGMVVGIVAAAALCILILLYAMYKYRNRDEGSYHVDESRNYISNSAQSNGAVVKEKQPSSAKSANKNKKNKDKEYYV

No constants are given. Whether binding was seen depends on the method and setting. In cells and extracts the contact can be indirect. These calls come from enrichment with a bait or labelling near it, and not all partners need be listed. For some assays here: No binding means not detected with the bait.

The chains are these.
B1: calsyntenin-3 (protein, UniProt Q99JH7 20-956)
chain: NKANKHKPWIEAEYQGIVMENDNTVLLNPPLFALDKDAPLRYAGEICGFRLHGSGVPFEAVILDKATGEGLIRAKEPVDCEAQKEHTFTIQAYDCGEGPDGTNTKKSHKATVHVRVNDVNEFAPVFVERLYRAAVTEGKLYDRILRVEAIDGDCSPQYSQICYYEILTPNTPFLIDNDGNIENTEKLQYSGEKLYKFTVTAYDCGKKRAADDAEVEIQVKPTCKPSWQGWNKRIEYAPGAGSLALFPGIRLETCDEPLWNIQATIELQTSHVAKGCDRDNYSERALRKLCGAATGEVDLLPMPGPNANWTAGLSVHYSQDSSLIYWFNGTQAVQVPLGGPAGLGSGPQDGFSDHFTLSFWMKHSVTPSKGKKEEETIVCNTVQNEDGYSHYSLTVHGCRIAFLYWPLLESARPVKFLWKLEQVCDDEWHHYALNLEFPTVTLYTDGISFDPALIHDNGLIHPPRREPALMIGACWTEEKNKEKKGGENSTDTASGDPLLIHHYFHGYLAGFSVRSGRLESREVIECLYACREGLDYRDFESLGKGMKVHVNPSQSLLTLEGDDVETFNHALQHVAYMNTLRFATPGVRPLRLTTAVKCFSEESCVSIPEVEGYVVVLQPDAPQILLSGTAHFARPAVDFEGPEGVPLFPDLQITCSISHQVEAKADESWQGTVTDTRMSDEIVHNLDGCEISLVGDDLDPERESLLLDMASLQQRGLELTNTSAYLTIAGVETITVYEEILRQARYQLRHGAALYARKFRLSCSEMNGRYSSNEFIVEVNVLHSMNRVAHPSHVLSSQQFLHRGHQPPPEMAGHSLASSHRNSMVPSAATLIIVVCVGFLVLMVILGLVRIHSLHRRVSGTGGPSGASTDPKDPDLFWDDSALTIIVNPMESYQNQQTCVAGVAGGQQEEEDSSDSEAADSPSSDERRIIESPPHRY

The first test deals with synaptotagmin-11 (mouse (endogenous in mouse brain)) (UniProt Q9R0N3). As to the kind of experiment: affinity purification with mass spectrometry; anti-Syt11 antibodies on protein A Dynabeads, 2 h, with mouse brain membranes solubilised in CL-91 with 2 mM Ca2+; controls: anti-Syt11 with Syt11-/- membranes and pre-immunization IgG; duplicates.
In the case of B1, the binding result is recorded as “binds”.

For another test the target is unchanged. Described as above. The source holds these as a separate data set.
For the molecule “Cav2.2 (N-type voltage-gated Ca2+ channel) subunit α1B (from UniProt O55017 1-2327)”, the binding result is “binds”. On the same count and under the same terms, then KCTD16 (from UniProt Q5DTY9 1-427), with “binds”; and “TrkB (from UniProt P15209 32-821) (receptor)”, with “binds”. “adenosine A1 receptor (from UniProt Q60612 1-326)”: the binding result was “no binding”. Still for that read-out and setting: then “kinesin-3 motor KIF1A (from UniProt P33173 1-1695)”, with “binds”; and “neurexin-1α (from UniProt Q9CS84 31-1514)”, with “binds”. Same read-out and setting: as for “α1A subunit of Cav2.1 channels (P/Q-type voltage-gated Ca2+ channels) (from UniProt P97445 1-2368)”, the entry is “no binding”.
